The values below come from article PMC12561186.

Sequences of proteins named here, by UniProt entry; tags and fusion partners are left off.
UniProt P23526: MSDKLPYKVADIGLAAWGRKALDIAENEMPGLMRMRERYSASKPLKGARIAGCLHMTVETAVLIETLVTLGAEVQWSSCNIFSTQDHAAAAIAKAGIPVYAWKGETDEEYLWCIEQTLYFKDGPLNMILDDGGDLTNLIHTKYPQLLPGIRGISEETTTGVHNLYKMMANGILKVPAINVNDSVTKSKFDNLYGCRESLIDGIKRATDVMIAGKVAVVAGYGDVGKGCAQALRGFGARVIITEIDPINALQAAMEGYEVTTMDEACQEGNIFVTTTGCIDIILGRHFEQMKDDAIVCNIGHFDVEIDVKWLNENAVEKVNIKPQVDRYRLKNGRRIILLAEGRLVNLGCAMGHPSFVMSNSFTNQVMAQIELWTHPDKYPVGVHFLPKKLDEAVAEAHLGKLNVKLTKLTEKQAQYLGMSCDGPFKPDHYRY

No constants are given. Whether binding was seen depends on the method and setting. Binding seen in cells or lysates may run through a third protein. These calls come from enrichment with a bait or labelling near it, and not all partners need be listed.

In this assay the target is stress‐induced phosphoprotein 1 (STIP1), endogenous (human (endogenous in ESCC cell lines KYSE450, KYSE510)) (UniProt P31948). Kind of assay: affinity purification with mass spectrometry; STIP1 complexes immunoprecipitated with anti-STIP1 antibody (normal IgG control) from KYSE450 and KYSE510 lysates, Protein A/G beads, SDS-PAGE, in-gel trypsin digestion, LC-MS/MS.
In the case of “adenosylhomocysteinase (AHCY), endogenous (from UniProt P23526 1-432) (enzyme)”, the binding entry was “binds”.
Regarding “Trypsin‐1 (from UniProt P07477) (enzyme)”, the binding result is listed as “binds”.
For the substance “IMPDH2, endogenous (from UniProt P12268 1-514) (enzyme)”, the binding result is on record as “binds”.
